Measured values taken from the supplement of paper PMC7666118.
Some of the results follow.

By UniProt entry, the sequences of proteins in these tests, tags left out. Where a name states a change or a piece, a line headed by the entry shows the natural chain unless it says otherwise.
UniProt Q5T8I3: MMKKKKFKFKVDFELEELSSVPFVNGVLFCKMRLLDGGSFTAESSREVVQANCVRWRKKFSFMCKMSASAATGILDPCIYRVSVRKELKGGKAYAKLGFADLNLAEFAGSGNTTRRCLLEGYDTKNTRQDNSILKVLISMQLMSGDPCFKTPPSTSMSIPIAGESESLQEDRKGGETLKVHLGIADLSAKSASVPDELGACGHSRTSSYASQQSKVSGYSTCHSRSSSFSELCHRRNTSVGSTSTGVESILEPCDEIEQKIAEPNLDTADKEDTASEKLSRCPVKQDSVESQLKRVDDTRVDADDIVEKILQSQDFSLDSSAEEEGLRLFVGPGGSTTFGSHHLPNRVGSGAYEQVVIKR
UniProt Q7Z2K6: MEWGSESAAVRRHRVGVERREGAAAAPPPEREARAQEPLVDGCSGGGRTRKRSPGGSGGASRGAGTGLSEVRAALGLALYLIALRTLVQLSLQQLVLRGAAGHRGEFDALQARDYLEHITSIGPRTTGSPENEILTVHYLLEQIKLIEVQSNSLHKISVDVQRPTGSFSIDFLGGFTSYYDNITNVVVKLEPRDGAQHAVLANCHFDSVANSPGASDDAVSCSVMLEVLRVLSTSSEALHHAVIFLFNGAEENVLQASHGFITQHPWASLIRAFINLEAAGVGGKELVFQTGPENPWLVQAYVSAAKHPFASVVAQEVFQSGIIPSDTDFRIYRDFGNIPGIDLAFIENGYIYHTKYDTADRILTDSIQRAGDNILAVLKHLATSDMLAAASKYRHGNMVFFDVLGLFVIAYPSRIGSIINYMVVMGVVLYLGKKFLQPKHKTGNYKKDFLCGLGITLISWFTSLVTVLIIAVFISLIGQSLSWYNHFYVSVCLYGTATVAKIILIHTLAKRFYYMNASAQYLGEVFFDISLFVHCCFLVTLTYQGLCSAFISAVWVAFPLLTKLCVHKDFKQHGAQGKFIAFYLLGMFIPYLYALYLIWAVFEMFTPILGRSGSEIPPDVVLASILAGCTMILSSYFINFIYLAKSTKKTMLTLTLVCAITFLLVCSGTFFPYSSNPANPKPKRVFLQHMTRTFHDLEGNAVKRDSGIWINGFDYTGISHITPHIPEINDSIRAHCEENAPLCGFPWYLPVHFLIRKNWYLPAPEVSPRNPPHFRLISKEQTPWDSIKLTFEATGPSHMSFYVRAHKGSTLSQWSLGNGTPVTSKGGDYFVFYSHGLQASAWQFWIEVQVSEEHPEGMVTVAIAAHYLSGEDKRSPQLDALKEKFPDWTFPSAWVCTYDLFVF
UniProt P24534: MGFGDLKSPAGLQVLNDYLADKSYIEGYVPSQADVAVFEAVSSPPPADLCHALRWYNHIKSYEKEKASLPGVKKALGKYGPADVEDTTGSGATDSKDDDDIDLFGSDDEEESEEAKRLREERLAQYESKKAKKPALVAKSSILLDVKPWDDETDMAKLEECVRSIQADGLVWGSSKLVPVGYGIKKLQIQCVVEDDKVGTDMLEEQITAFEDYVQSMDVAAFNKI
UniProt Q96GK7: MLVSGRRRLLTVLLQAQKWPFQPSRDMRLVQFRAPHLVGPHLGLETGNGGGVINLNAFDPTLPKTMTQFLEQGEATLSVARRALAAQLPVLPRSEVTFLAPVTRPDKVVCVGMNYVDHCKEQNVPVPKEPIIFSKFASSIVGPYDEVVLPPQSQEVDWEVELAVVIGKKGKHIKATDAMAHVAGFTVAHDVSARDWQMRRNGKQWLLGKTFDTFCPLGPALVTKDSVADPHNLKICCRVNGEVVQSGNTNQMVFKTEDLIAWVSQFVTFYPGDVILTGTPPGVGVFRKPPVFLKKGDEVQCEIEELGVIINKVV
UniProt P41567, whole entry: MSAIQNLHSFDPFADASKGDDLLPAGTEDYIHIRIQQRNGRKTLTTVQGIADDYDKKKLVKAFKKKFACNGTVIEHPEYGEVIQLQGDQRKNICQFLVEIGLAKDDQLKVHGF
UniProt P06730, whole entry: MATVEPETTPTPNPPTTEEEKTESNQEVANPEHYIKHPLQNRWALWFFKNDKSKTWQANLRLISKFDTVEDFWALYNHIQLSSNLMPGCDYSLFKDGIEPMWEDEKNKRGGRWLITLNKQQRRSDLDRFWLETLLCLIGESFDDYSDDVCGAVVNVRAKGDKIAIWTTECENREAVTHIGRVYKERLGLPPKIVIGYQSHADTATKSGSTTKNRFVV
UniProt Q15910, whole entry, looked up: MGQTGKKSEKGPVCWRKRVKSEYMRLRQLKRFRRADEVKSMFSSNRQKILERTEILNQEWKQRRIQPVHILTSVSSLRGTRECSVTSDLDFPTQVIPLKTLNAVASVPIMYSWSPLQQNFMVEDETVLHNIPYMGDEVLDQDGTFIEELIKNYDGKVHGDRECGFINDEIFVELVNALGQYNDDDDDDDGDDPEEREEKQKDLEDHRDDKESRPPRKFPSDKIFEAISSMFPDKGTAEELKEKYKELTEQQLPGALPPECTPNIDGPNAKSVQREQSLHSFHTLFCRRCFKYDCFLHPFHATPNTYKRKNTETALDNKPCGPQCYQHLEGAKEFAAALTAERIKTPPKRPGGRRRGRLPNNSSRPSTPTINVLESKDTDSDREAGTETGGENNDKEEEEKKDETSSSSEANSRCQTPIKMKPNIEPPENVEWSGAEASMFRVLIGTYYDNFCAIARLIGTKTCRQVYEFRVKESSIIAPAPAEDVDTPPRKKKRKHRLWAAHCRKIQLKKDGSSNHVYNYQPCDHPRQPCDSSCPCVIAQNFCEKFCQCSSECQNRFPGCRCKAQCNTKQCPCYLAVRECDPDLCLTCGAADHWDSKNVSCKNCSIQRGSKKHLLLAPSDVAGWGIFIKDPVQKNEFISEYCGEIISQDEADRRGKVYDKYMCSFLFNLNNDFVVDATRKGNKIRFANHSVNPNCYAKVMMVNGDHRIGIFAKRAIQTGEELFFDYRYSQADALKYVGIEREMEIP
UniProt Q92611: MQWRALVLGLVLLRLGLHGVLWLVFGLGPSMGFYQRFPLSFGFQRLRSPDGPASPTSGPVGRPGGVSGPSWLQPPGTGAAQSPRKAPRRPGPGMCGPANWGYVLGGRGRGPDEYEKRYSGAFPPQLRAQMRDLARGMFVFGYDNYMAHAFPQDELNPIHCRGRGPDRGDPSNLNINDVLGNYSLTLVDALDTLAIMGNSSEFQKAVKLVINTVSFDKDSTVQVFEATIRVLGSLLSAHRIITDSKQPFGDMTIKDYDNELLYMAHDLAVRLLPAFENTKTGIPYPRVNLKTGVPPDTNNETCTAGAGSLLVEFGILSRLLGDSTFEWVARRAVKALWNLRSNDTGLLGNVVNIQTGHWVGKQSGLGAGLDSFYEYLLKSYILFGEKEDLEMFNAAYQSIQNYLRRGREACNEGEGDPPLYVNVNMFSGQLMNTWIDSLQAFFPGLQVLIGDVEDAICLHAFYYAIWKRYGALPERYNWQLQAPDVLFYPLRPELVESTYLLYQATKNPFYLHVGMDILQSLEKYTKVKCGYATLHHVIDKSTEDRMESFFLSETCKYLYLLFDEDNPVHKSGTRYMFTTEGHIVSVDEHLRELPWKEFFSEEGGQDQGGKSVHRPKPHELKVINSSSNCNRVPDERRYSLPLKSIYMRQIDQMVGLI
UniProt P11171, whole entry: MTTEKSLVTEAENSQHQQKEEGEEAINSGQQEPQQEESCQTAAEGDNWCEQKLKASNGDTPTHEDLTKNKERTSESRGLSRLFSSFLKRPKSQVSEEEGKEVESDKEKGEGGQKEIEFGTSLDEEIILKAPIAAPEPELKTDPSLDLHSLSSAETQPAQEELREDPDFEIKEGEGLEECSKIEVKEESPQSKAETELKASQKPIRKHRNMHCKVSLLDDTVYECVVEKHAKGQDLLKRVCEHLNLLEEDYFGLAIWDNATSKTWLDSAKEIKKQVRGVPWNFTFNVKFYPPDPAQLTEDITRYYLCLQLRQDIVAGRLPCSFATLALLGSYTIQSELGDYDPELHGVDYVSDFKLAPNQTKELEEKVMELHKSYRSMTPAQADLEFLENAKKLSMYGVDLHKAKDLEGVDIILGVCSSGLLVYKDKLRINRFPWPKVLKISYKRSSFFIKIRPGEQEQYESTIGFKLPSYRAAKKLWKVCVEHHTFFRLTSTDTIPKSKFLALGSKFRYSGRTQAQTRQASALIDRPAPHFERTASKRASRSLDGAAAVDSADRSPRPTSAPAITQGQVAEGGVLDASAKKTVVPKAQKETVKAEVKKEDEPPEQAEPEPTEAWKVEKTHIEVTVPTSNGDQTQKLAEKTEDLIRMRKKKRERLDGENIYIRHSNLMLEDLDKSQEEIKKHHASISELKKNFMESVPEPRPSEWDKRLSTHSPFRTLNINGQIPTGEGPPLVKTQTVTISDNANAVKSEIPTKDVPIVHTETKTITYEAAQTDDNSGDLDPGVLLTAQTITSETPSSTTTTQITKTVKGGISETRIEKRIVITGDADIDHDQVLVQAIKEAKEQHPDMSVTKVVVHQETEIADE
UniProt Q9Y421: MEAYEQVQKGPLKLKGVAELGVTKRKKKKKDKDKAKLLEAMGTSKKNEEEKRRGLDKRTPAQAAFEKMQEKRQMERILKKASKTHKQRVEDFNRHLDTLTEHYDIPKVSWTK
UniProt P00488: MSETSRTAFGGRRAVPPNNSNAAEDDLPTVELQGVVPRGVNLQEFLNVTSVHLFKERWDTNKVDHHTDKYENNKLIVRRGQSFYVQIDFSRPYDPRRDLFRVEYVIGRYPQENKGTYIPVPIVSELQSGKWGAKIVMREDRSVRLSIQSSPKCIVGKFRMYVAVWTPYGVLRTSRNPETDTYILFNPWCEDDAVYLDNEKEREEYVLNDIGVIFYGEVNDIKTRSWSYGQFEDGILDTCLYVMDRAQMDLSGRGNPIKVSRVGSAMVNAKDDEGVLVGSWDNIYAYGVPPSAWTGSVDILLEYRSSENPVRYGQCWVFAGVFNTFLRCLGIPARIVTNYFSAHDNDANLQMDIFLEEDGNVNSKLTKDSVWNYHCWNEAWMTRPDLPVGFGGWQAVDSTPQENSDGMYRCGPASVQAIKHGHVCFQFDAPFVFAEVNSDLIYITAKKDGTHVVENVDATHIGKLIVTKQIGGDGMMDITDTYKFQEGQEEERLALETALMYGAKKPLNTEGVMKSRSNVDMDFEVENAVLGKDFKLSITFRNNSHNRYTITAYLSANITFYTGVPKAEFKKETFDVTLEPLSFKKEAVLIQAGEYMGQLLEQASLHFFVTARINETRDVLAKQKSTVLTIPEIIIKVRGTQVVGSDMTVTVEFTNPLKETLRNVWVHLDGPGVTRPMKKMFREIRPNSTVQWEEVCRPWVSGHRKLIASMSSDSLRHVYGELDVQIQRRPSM
UniProt P15311, whole entry: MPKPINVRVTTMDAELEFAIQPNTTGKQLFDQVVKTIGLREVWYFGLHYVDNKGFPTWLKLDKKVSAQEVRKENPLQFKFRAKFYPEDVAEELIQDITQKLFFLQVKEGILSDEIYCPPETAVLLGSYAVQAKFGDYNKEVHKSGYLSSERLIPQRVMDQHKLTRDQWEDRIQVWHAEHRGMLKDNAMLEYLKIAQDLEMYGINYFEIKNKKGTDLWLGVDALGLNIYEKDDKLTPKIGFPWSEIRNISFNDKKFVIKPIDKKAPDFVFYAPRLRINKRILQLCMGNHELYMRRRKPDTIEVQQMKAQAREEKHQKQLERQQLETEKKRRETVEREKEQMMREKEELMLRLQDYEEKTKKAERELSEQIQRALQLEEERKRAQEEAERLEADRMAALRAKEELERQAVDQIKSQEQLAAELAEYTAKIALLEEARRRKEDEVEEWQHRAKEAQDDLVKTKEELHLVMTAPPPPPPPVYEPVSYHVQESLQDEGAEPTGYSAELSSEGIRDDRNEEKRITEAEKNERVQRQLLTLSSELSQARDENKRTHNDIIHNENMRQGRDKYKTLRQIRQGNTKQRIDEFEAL
UniProt Q9NYP7: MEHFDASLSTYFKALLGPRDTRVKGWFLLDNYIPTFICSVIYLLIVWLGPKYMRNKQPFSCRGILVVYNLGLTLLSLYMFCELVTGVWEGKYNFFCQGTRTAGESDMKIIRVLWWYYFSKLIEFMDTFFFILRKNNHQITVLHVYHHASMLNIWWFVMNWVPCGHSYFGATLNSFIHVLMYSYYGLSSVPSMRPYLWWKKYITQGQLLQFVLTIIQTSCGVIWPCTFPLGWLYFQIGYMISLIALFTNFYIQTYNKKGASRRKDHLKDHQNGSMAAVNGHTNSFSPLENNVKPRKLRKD
UniProt Q9NR50: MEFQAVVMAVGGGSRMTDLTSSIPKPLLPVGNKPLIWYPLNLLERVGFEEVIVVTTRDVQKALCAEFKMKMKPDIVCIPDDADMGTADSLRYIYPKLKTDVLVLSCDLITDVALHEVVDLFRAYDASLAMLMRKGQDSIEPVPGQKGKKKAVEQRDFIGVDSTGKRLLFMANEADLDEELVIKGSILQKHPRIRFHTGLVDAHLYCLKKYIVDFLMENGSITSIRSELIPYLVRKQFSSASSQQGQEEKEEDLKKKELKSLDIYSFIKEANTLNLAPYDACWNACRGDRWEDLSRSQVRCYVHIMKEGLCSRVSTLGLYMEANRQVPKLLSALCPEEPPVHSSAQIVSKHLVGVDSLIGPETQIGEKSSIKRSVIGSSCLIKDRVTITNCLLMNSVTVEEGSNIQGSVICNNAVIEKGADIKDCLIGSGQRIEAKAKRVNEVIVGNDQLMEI

Compound: COc1ccc(Cn2ccc3cc(C)c(C(=O)NO)cc32)cc1
Assay: dose-dependent thermal stabilisation call (2D-TPP, DLPTP, 10% FDR) (binary (1 = stabilised)); higher = stabilised by the compound
Details: system: HL-60 intact cells; concentration range 0.04-10 µM
Protocol: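 2D thermal proteome profiling in intact HL-60 cells treated with BRD-3811 (0, 0.04, 0.29, 2, 10 uM) for 90 min at 37 C, then heated 3 min at one of 12 temperatures (42-63.9 C). Soluble protein was quantified by TMT10 MS. The value is the DLPTP call of the paper: dose-dependent thermal stabilisation over all temperatures at 10% FDR (F-test of a dose-response against a flat model); one experiment, one call per tested protein.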

Target	dose-dependent thermal stabilisation call
FAM102B (UniProt Q5T8I3)	inactive: 0
ERMP1 (UniProt Q7Z2K6)	inactive: 0
FAM21C (UniProt Q9Y4E1)	inactive: 0
FAM175A (UniProt Q6UWZ7)	inactive: 0
EEF1B2 (UniProt P24534)	inactive: 0
EMG1 (UniProt Q92979)	inactive: 0
EPS15L1 (UniProt Q9UBC2)	inactive: 0
FAM36A (UniProt Q5RI15)	inactive: 0
ERAL1 (UniProt O75616)	inactive: 0
EXOG (UniProt Q9Y2C4)	inactive: 0
FAHD2A (UniProt Q96GK7)	inactive: 0
EIF1 (UniProt P41567)	inactive: 0
EIF4E (UniProt P06730)	inactive: 0
EML3 (UniProt Q32P44)	inactive: 0
EZH2 (UniProt Q15910)	inactive: 0
EDEM1 (UniProt Q92611)	inactive: 0
EPB41 (UniProt P11171)	inactive: 0
EFNB1 (UniProt P98172)	inactive: 0
EFTUD1 (UniProt Q7Z2Z2)	inactive: 0
FAM32A (UniProt Q9Y421)	inactive: 0
ENOSF1 (UniProt Q7L5Y1)	inactive: 0
F13A1 (UniProt P00488)	inactive: 0
EBP (UniProt Q15125)	inactive: 0
EZR (UniProt P15311)	inactive: 0
EEF1E1 (UniProt O43324)	inactive: 0
ELOVL5 (UniProt Q9NYP7)	inactive: 0
EIF2B3 (UniProt Q9NR50)	inactive: 0

Quoted at random: two records from the list, in no set order.
Target	dose-dependent thermal stabilisation call
F13A1 (UniProt P00488)	inactive: 0
EML3 (UniProt Q32P44)	inactive: 0
